“And” between values parts separate entries of the source, which are not always exact repeats. Equal values may be shown once. For some of these results: At least one read-out could not be matched to a standard name with certainty. Some results were stated once for a whole list of compounds, not compound by compound. Some ranges recur; such a range may be that of the whole group of compounds.
Legend:
[1] = system: PEO1 ovarian cancer cells; assay: pH-dependent cell growth inhibition, transient treatment; assay type: cell-based
Protocol: FIG. 9 depicts pH-dependent cell growth inhibition of PEO1 ovarian cancer cells in culture, treated transiently with various prodrugs of the invention, as described above.
FIG. 10 depicts pH-dependent cell growth inhibition of PEO1 ovarian cancer cells in culture, treated transiently with an anticancer kinase inhibitor drug, Osimertinib, or a compound of the invention, based on an active core of that drug, YU253673.
In order to evaluate pH-dependent activity, treatments are performed at atypical cell culture conditions. […] Several cell lines have been evaluated using this method and for each, cell seeding density and treatment duration is independently experimentally determined. Each experiment is normalized to sham and complete activity controls for each pH condition.
Similar results have been obtained from pH-dependent cell growth inhibition assays with other classes of Drug using the prodrug approach.

[2] = Reductive activation / doxorubicin release in 5 mM GSH (LCMS); assay type: in vitro ADME; details: 50 μM, PBS pH 7.4, 5 mM GSH, 37° C.
Protocol: In certain embodiments, the prodrug releases the active form of the drug once inside a cancer cell. Once inside the cell, drug release can be triggered by reduction of the disulfide bond in the linker. To evaluate the reductive activation of drug release, 50 μM YU241528 in a solution of PBS, pH 7.4, containing 5 mM GSH (a typical intracellular concentration of the predominant biological reducing agent) was incubated at 37° C. Aliquots were taken at regular intervals and analyzed by LCMS.

| Compound | fold greater cell growth inhibition to cells treated at pH 6.2 than at pH 7.4 [1] [fold] | t1/2 of doxorubicin release from the prodrug [2] |
| --- | --- | --- |
| O=NN(CCCl)C(=O)OCCSSCCCc1c(F)c(F)c(O)c(F)c1F [YU253671, 2-((3-(2,3,5,6-tetrafluoro-4-hydroxyphenyl)propyl)disulfaneyl)ethyl (2-chloroethyl)(nitroso)carbamate] | 3.5 to 10 |  |
| 8-((2-((((2S,3S,4S,6R)-3-hydroxy-2-methyl-6-(((1S,3S)-3,5,12-trihydroxy-3-(2-hydroxyacetyl)-10-methoxy-6,11-dioxo-1,2,3,4,6,11-hexahydrotetracen-1-yl)oxy)tetrahydro-2H-pyran-4-yl)carbamoyl)oxy)ethyl)disulfaneyl)-2,2-dimethyloctanoic acid [YU241528] |  | 2 to 3 h and ~3 h |
| CN(N=O)C(=O)OCCSSCCCc1c(F)c(F)c(O)c(F)c1F [YU253638, 2-((3-(2,3,5,6-tetrafluoro-4-hydroxyphenyl)propyl)disulfaneyl)ethyl methyl(nitroso)carbamate] | 3.5 to 10 |  |
| NP(=O)(OCCSSCCCc1c(F)c(F)c(O)c(F)c1F)N(CCCl)CCCl (stereo not shown) [YU252213, 2-((3-(2,3,5,6-tetrafluoro-4-hydroxyphenyl)propyl)disulfaneyl)ethyl phosphoramide mustard] | 3.5 to 10 |  |

— US20210085796A1, “ANTICANCER DRUGS AND METHODS OF MAKING AND USING SAME” (YALE UNIVERSITY, priority 2017, published 2021)
